Measured values taken from article PMC11109957.
Numbering of substitutions follows the chain as printed. Results are given in words; binding and its absence hold for the method and conditions named. Binding seen in cells or lysates may run through a third protein. Some entries that bind do so weakly or less than the wild type. For some of these results: Tags and fused reporters may be left off the sequences shown. Each block holds one molecule with its values, some of them ahead of it.

Amino acid sequences for entries named in this document (tags omitted).
UniProt O15527: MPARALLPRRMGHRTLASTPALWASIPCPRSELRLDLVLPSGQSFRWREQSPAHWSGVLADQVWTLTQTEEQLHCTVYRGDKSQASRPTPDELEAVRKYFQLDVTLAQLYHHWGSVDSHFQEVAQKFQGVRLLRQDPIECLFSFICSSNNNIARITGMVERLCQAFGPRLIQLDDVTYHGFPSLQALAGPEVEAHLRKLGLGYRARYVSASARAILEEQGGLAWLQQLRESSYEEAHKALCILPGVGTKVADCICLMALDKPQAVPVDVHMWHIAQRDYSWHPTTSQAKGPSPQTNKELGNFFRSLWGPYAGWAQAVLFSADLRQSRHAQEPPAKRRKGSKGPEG
UniProt Q13535: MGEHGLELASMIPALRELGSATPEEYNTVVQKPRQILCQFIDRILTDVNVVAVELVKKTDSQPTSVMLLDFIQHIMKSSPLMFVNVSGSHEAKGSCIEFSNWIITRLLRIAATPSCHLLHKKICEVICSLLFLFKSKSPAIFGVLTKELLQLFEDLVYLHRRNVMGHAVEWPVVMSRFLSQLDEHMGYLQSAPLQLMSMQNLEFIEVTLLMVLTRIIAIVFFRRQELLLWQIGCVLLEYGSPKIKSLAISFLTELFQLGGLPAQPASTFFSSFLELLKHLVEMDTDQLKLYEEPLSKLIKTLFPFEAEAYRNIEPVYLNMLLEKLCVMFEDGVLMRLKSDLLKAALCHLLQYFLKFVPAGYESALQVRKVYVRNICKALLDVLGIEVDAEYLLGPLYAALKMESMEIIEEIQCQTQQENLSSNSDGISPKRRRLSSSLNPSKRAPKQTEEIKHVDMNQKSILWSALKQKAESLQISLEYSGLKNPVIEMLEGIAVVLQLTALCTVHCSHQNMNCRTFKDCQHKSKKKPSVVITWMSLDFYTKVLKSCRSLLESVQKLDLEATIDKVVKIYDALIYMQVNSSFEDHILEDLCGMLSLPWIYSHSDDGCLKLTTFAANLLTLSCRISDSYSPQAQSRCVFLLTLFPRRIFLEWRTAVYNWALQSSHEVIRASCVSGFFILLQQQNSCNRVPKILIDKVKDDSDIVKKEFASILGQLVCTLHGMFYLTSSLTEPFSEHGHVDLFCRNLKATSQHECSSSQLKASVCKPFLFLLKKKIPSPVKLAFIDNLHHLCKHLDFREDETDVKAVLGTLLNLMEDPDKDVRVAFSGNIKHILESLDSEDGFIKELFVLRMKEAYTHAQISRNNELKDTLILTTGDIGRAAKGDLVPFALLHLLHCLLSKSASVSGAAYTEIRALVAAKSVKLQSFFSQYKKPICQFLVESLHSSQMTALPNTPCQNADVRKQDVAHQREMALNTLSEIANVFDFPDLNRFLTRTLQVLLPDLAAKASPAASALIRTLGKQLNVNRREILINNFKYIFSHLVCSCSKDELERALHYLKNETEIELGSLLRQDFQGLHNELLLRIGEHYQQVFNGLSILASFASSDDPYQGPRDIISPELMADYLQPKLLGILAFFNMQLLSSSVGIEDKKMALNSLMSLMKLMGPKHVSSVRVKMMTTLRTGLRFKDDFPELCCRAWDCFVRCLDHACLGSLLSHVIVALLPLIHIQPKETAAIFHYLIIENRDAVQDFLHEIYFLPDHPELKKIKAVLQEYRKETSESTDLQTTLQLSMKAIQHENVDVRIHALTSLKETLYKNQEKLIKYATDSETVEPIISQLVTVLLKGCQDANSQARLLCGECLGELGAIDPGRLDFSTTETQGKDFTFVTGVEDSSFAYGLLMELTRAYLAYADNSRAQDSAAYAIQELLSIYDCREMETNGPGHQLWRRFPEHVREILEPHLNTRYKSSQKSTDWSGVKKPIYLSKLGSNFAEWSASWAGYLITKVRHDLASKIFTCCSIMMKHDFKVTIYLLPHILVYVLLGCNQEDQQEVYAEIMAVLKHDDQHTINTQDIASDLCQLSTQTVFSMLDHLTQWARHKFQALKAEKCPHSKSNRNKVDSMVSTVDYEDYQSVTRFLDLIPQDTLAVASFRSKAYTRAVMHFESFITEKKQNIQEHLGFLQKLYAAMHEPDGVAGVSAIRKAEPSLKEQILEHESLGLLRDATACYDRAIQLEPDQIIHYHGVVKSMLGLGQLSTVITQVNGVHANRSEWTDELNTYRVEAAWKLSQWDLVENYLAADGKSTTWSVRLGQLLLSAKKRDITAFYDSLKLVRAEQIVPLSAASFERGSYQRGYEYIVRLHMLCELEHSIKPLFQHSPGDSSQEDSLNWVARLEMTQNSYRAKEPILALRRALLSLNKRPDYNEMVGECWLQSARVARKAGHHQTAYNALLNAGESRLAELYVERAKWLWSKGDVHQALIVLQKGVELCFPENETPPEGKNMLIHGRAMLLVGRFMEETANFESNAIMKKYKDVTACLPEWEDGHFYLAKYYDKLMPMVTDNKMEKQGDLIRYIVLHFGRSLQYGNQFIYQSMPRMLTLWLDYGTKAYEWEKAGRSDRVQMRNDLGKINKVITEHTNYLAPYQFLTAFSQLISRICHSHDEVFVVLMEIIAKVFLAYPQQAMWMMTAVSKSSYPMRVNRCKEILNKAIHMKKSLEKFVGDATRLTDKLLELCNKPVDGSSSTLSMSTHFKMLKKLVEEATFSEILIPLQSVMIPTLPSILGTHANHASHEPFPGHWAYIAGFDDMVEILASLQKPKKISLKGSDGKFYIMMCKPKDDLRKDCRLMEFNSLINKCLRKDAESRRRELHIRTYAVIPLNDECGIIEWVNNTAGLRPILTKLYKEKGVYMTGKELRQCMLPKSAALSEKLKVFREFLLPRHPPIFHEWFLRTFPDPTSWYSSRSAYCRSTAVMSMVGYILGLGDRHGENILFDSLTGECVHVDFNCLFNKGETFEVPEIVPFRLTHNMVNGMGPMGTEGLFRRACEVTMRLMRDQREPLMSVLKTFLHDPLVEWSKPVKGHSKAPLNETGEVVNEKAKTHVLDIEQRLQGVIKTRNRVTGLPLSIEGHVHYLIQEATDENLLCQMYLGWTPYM

How the values were obtained:
SIRT2-Flag [1] = biological target: T1, SIRT2-Flag (UniProt Q8IXJ6); assay: co-IP; HEK293 cells transfected with a vector encoding Flag-tagged SIRT2; beads coated with an antibody against Flag; blots for BER factors
T1 sequence: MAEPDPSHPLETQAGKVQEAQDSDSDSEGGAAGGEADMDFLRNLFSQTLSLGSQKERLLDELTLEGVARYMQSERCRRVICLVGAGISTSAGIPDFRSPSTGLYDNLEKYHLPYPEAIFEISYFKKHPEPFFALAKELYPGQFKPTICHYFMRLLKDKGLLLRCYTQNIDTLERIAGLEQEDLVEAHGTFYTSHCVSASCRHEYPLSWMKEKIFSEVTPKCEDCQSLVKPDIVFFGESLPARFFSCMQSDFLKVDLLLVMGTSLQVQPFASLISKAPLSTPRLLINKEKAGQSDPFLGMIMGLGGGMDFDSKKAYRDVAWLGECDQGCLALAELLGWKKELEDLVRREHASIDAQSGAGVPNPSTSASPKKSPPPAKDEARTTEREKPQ

SIRT2-Flag [2] = biological target: T1, SIRT2-Flag; assay: co-IP; HEK293 cells transfected with SIRT2-Flag and OGG1-His; co-IP with an anti-Flag antibody, Western blot
SIRT2-Flag-GFP = biological target: T2, SIRT2-Flag-GFP (UniProt Q8IXJ6); assay: co-IP; HEK293 cells transfected with SIRT2-Flag-GFP and OGG1-His, treated with 40 mM KBrO3 for 30 min (or with H2O2); co-IP with Flag beads, Western blot
T2 sequence: T1 sequence

[3] = biological target: T3, SIRT2 (construct of Figure 5C, D, F, K not told) (UniProt Q8IXJ6); assay: co-IP; co-IP of OGG1 with SIRT2 WT or S46AS53A; cells treated with KBrO3, with or without ATM or ATR inhibitors; constructs not told
T3 sequence: T1 sequence

SIRT2 S46AS53A = biological target: T4, SIRT2 S46AS53A (UniProt Q8IXJ6); assay: as above
T4 sequence: T1 sequence with S46A, S53A

[4] = biological target: T3, SIRT2 (construct of Figure 5C, D, F, K not told); assay: co-IP; co-IP of SIRT2 with ATM or ATR; constructs and antibodies not told
OGG1-His = OGG1-His (UniProt O15527); assay: co-IP; HEK293 cells transfected with SIRT2-Flag and OGG1-His; co-IP with an anti-His antibody, Western blot

Molecule: OGG1 (construct of Figure 5F, K not told) (from UniProt O15527 1-345)
binding [3]: binds | binding (SIRT2 S46AS53A): binds

Molecule: ATR (ATM- and Rad3-Related) kinase (from UniProt Q13535 1-2644) (enzyme)
binding [4]: binds

Results, then the molecule that gave them:

binding (SIRT2-Flag [1]): binds
Molecule: OGG1 (from UniProt O15527 1-345)

binding (SIRT2-Flag [2]): binds | binding (SIRT2-Flag-GFP): binds
Molecule: OGG1-His (from UniProt O15527 1-345)

binding (OGG1-His): binds
B1: SIRT2-Flag (protein, UniProt Q8IXJ6 1-389)
chain: T1 sequence
